This data set in a line: Taste and mouthfeel of VX-950 on oral intake (background finding).

`CCC[C@H](NC(=O)[C@@H]1[C@H]2CCC[C@H]2CN1C(=O)[C@@H](NC(=O)[C@@H](NC(=O)c1cnccn1)C1CCCCC1)C(C)(C)C)C(=O)C(=O)NC1CC1` [VX-950]: the bitter taste entry (VX-950 and excipients necessary to formulate it) is given as “very bitter”. Moreover, the “mouthfeel / mouth irritation” value (orally digested) is listed as “leaves a dry mouthfeel and/or mouth irritation”.
